From US10058525B2, “Application of chlorogenic acid in preparing medicines for treating lupus erythematosus” (SICHUAN JIUZHANG BIOLOGICAL SCIENCE AND TECHNOLOGY CO., LTD., priority 2015, dated 2018)

Tested on: lupus erythematosus model mice (renal glomerular capsule wall epithelial cells)
Experiment: Electron microscope observation of kidney samples, lupus model mice
Type: in vivo, BALB/c mice
Settings: positive controls (artesunate, prednisone), 21 days
Protocol: The back of mice was shaved and acutely exposed to Ultraviolet of 2 h/d*3 d, with a distance of 30 cm. After exposure to UV, 2.5 mg/kg of LPS was administrated once by ip, and after 24 h, the model was successfully established; the mice in the normal control group received normal saline via ip. 24 h after injection of LPS (ip), medicines were given to the model mice by intragastric administration. Chlorogenic acid test groups received high, middle, and low doses of medicines, by intragastric administration at a respective dosage of 10 mg/kg*d, 20 mg/kg*d, and 40 mg/kg*d. The positive control group A received 2 mg/kg*d of artesunate by stomach perfusion, while the positive control group B received 1 mg/kg*d of prednisone by stomach perfusion. Mice in the model and normal control group all received 0.4 ml/mouse normal saline by gavage. After 15 days of administration, animals in each group were taken blood by separating eyeballs on days 14, 21, 28, and after cultured in water bath at 37° C. for 1 h, the blood sample was centrifugated at 2000 r/min for 5 min, to draw serum for use. On day 21, after blood collection, animals were sacrificed by dislocation, followed by collection of liver and kidney, and they were placed in fixative solutions of electron microscope and light microscrope, respectively. […]

Row | SMILES | accompanying electron microscope findings in kidney
1 | C[C@]12C=CC(=O)C=C1CC[C@@H]1[C@@H]2C(=O)C[C@@]2(C)[C@H]1CC[C@]2(O)C(=O)CO [Prednisone, prednisone, reference compound] | the number of mitochondria increased, accompanied by the loss of organelles
2 | C[C@H]1[C@H](OC(=O)CCC(=O)O)O[C@@H]2O[C@@]3(C)CC[C@H]4[C@H](C)CC[C@@H]1[C@@]24OO3 [Artesunate, artesunate, reference compound] | accompanied by thrombus
